The text below walks through data of patent publication US20100323346A1.

Chains of the proteins cited; added tags and fusions are not shown. Lines headed by an entry give the natural chain unless they say otherwise; changes in a name come on top.
UniProt P48357: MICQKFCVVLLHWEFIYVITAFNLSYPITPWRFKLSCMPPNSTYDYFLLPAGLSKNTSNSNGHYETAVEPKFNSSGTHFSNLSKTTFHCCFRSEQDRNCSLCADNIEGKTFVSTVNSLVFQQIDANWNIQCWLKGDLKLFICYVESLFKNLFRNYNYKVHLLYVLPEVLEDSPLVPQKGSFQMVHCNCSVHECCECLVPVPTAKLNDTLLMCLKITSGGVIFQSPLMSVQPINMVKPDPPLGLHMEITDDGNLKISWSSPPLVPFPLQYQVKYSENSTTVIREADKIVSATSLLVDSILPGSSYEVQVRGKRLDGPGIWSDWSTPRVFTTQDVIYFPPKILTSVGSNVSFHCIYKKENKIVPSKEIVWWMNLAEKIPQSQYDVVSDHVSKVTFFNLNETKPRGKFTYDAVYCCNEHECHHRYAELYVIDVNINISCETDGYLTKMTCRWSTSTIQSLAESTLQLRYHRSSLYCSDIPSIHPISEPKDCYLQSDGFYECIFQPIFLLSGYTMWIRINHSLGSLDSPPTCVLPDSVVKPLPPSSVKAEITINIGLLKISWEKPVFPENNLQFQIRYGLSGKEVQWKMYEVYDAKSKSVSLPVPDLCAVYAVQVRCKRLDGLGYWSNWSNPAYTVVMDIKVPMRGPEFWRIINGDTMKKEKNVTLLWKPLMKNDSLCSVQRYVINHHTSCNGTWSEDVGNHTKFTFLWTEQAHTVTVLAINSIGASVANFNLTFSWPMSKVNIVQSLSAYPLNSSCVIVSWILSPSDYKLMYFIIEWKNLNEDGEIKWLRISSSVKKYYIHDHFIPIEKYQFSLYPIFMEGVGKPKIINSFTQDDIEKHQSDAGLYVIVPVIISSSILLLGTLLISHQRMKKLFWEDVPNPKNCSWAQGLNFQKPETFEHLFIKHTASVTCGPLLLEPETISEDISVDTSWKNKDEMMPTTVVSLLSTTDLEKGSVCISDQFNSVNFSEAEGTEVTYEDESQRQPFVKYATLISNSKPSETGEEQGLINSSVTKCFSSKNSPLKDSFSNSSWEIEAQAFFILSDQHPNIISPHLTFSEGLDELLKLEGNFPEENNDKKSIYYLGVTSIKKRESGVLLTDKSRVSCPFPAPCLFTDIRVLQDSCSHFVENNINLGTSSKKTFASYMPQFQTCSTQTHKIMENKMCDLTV

This assay has as its target LRID-Myc (intracellular domain of the leptin receptor fused to a tag) (human) (UniProt P48357). In words: co-immunoprecipitation from transfected COS7 cells (IP anti-FLAG agarose, Western blot anti-Myc).

Results are given in words; binding and its absence hold for the method and conditions named. Binding seen in cells or lysates may run through a third protein. Some results given as binding are weak or reduced against the parent protein; the word gives no strength. Sequences can lack the tags named with a protein.

B1: galectin-2-FLAG (ligand, not shown: small tags and cut ends)
chain: MTGELEVKNMDMKPGSTLKITGSIADGTDGFVINLGQGTDKLNLHFNPRFSESTIVCNSLDGSNWGQEQREDHLCFSPGSEVKFTVTFESDKFKVKLPDGHELTFPNRLGHSHLSYLSVRGGFNMSSFKLKE
As for B1, the binding entry is recorded as “binds”.
